PubChem BioAssay AID493246, Drosophila RNAi Screening Center – 2011
The deposit covers about 21,000 reagents; shown is an unselected part of those with a known target gene and a result. In the full data, 429 (2%) got an active call. 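Values are raw and not normalised between plates; calls rest on per-plate z-scores that were not deposited.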 Not given: the amount of reagent, the time to read-out.

- Aim: 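Identify essential fly genes by loss of cell viability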 (primary screen)
- Cell system: Drosophila Kc and S2R+ cells
- Reagents: long dsRNA against Drosophila genes
- Measured: 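Raw, unnormalised count of remaining cells in each well; per-plate z-scores of cell number underlie the calls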
- Direction: Kc cell number and S2R+ cell number: higher = more cells remaining
- Active means: 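Counted as a hit if cell number falls by a z-score of at least 3 within its plate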

Against CG14744 [DRSC06480], the values are Kc cell number, rep 1 = 1.66e6; Kc cell number, rep 2 = 1.64e6; S2R+ cell number, rep 1 = 1.31e6; S2R+ cell number, rep 2 = 1.51e6; inactive. For Abcd3 [DRSC19488], the entry reads Kc cell number, rep 1 = 1.57e6; Kc cell number, rep 2 = 1.67e6; S2R+ cell number, rep 1 = 1.02e6; S2R+ cell number, rep 2 = 1.14e6; inactive. For Dhc1 [DRSC16503], the values are Kc cell number, rep 1 = 1.34e6; Kc cell number, rep 2 = 1.31e6; S2R+ cell number, rep 1 = 1.27e6; S2R+ cell number, rep 2 = 1.31e6; inactive. With knock-down of Lcp65Ag3 [DRSC10345], the screen gave Kc cell number, rep 1 = 1.35e6; Kc cell number, rep 2 = 1.32e6; S2R+ cell number, rep 1 = 1.15e6; S2R+ cell number, rep 2 = 1.22e6; inactive. Depletion of AstCC [DRSC02404] resulted in: Kc cell number, rep 1 = 1.55e6; Kc cell number, rep 2 = 1.59e6; S2R+ cell number, rep 1 = 1.18e6; S2R+ cell number, rep 2 = 1.34e6; inactive. For Amt [DRSC16055], the entry reads Kc cell number, rep 1 = 1.23e6; Kc cell number, rep 2 = 1.32e6; S2R+ cell number, rep 1 = 1.25e6; S2R+ cell number, rep 2 = 1.34e6; inactive.

Knock-down of Polr2G [DRSC16068] came out at: Kc cell number, rep 1 = 1.47e6; Kc cell number, rep 2 = 1.56e6; S2R+ cell number, rep 1 = 1.05e6; S2R+ cell number, rep 2 = 1.17e6; inactive. Against CG32281 [DRSC08236] the deposit lists Kc cell number, rep 1 = 1.32e6; Kc cell number, rep 2 = 1.46e6; S2R+ cell number, rep 1 = 1.14e6; S2R+ cell number, rep 2 = 9.65e5; inactive. Against mtrm [DRSC10322] the deposit lists Kc cell number, rep 1 = 1.27e6; Kc cell number, rep 2 = 1.39e6; S2R+ cell number, rep 1 = 8.38e5; S2R+ cell number, rep 2 = 8.56e5; inactive. With knock-down of foi [DRSC10719], the screen gave Kc cell number, rep 1 = 1.74e6; Kc cell number, rep 2 = 1.72e6; S2R+ cell number, rep 1 = 8.94e5; S2R+ cell number, rep 2 = 1.05e6; inactive. Depletion of Noc3 [DRSC12535] resulted in: Kc cell number, rep 1 = 1.46e6; Kc cell number, rep 2 = 1.56e6; S2R+ cell number, rep 1 = 1.13e6; S2R+ cell number, rep 2 = 1.25e6; inactive. Knock-down of ida [DRSC08163] resulted in: Kc cell number, rep 1 = 1.57e6; Kc cell number, rep 2 = 1.47e6; S2R+ cell number, rep 1 = 8.94e5; S2R+ cell number, rep 2 = 1.16e6; inactive.

Knock-down of CG5122 [DRSC02816] came out at: Kc cell number, rep 1 = 1.57e6; Kc cell number, rep 2 = 1.67e6; S2R+ cell number, rep 1 = 1.27e6; S2R+ cell number, rep 2 = 1.43e6; inactive. Knock-down of sds22 [DRSC17052] gave: Kc cell number, rep 1 = 1.24e6; Kc cell number, rep 2 = 1.27e6; S2R+ cell number, rep 1 = 1.18e6; S2R+ cell number, rep 2 = 1.23e6; inactive. CG10877 [DRSC14274] scored Kc cell number, rep 1 = 1.34e6; Kc cell number, rep 2 = 1.50e6; S2R+ cell number, rep 1 = 1.05e6; S2R+ cell number, rep 2 = 1.14e6; inactive. Depletion of pix [DRSC10533] gave: Kc cell number, rep 1 = 1.36e6; Kc cell number, rep 2 = 1.51e6; S2R+ cell number, rep 1 = 8.67e5; S2R+ cell number, rep 2 = 9.72e5; inactive. Against CG14286 [DRSC14767], the values are Kc cell number, rep 1 = 1.39e6; Kc cell number, rep 2 = 1.39e6; S2R+ cell number, rep 1 = 1.02e6; S2R+ cell number, rep 2 = 1.14e6; inactive. Silencing of CG12017 [DRSC08225] came out at: Kc cell number, rep 1 = 1.61e6; Kc cell number, rep 2 = 1.36e6; S2R+ cell number, rep 1 = 9.81e5; S2R+ cell number, rep 2 = 1.42e6; inactive.

Polr3D [DRSC10485] scored Kc cell number, rep 1 = 1.46e6; Kc cell number, rep 2 = 1.49e6; S2R+ cell number, rep 1 = 1.11e6; S2R+ cell number, rep 2 = 1.22e6; inactive. Tango6 [DRSC02671] gave Kc cell number, rep 1 = 1.34e6; Kc cell number, rep 2 = 1.46e6; S2R+ cell number, rep 1 = 1.37e6; S2R+ cell number, rep 2 = 1.29e6; inactive. Knock-down of cid [DRSC05429] resulted in: Kc cell number, rep 1 = 1.49e6; Kc cell number, rep 2 = 1.47e6; S2R+ cell number, rep 1 = 9.83e5; S2R+ cell number, rep 2 = 1.15e6; inactive. After knock-down of cid [DRSC07592], the record shows Kc cell number, rep 1 = 1.59e6; Kc cell number, rep 2 = 1.62e6; S2R+ cell number, rep 1 = 1.33e6; S2R+ cell number, rep 2 = 1.42e6; inactive.

2 entries from above, arranged by “Kc cell number, rep 1”, descending.
CG12017 [DRSC08225] | Kc cell number, rep 1: 1.61e6; Kc cell number, rep 2: 1.36e6; S2R+ cell number, rep 1: 9.81e5; S2R+ cell number, rep 2: 1.42e6; call: inactive
CG14286 [DRSC14767] | Kc cell number, rep 1: 1.39e6; Kc cell number, rep 2: 1.39e6; S2R+ cell number, rep 1: 1.02e6; S2R+ cell number, rep 2: 1.14e6; call: inactive
